Measured values published in US6475724B1, “Nucleic acids, kits, and methods for the diagnosis, prognosis and treatment of glaucoma and related disorders” (The Regents of the University of California, priority 1997, dated 2002).
“Also recorded” adds a separate entry of the source. At least one structure is not confirmed: it was looked up by name or label, or the drawing left a doubt.

How the values were obtained:
[1] = system: 283 base pair TIGR 5′ regulatory region; assay: Gel shift assay: binding of TM cell nuclear extract components to the TIGR 5′ fragment; format: cell-based, human; settings: nuclear extracts of TM cells, DEX (500 nM) for 10 days vs no DEX; listed as DEX
TIGR mRNA in HTM cells = settings: cited from earlier work
[2] = system: cells of the trabecular meshwork; settings: extended exposure to relatively high levels; cited from earlier work

## C[C@@H]1C[C@H]2[C@@H]3CCC4=CC(=O)C=C[C@]4(C)[C@@]3(F)[C@@H](O)C[C@]2(C)[C@@]1(O)C(=O)CO [dexamethasone]
[1]
  binding of cellular components to the 283 base pair TIGR 5′ regulatory region: changes the amount or strength of binding; also recorded: much higher amount of cellular component binds
TIGR mRNA in HTM cells; HTM cells, dexamethasone treatment
  induction of mRNA: ~4 % of the total cellular mRNA
TIGR mRNA in HTM cells; over 10 days of dexamethasone treatment
  time course of mRNA induction: increased progressively
[2]
  induction of protein expression: induce the expression of related 66 kD and 55 kD proteins
